Measured values taken from patent US20230098111A1, “COMPOSITIONS AND METHODS TO TREAT NEUROLOGICAL DISEASES” (University of Southern California, priority 2020, published 2023).

Test system: control iNs
Experiment: Survival of control iNs
Description: Log-rank test, 100 iNs per group. […] Log-rank test, 100 iNs per group. […] Mean+/−s.e.m. Kruskal-Wallis Test. […] Log-rank test, 100 iNs per group. iNs quantified from 3 independent iN conversions per line.

Question: For Nc1ccc(C(=O)Nc2cccc(-c3nc(N4CCOCC4)c4oc5ncccc5c4n3)c2)cn1 [YM201636], which “control iN survival” value is on record?
Answer: Its value is “decreased control iN survival”.
